± gives the uncertainty stated by the source. Many of these values have a large error.
Assay: self-splicing fitness, log relative to wild type (ln ratio); higher = more splicing; Tetrahymena group I intron in knt gene, E. coli kanamycin selection, DiMSum; sequences stand for … in CUCUCU…GGAGGGAAAAGUUAUCAGGCAUGCACCUGGUAGCUAGUCUUUAAACCAAUAGAUUGCAUCGGUUUAAAAGGCAAGACCGUCAAAUUGCGGGAAAGGGGUCAACAGCCGUUCAGUACCAAGUCUCAGGGGAAACUUUGAGAUGGCCUUGCAAAGGGUAUGGUAAUAAGCUGACGGACAUGGUCCUAACCACGCAGCCAAGUCCUAAGUCAACAGAUCUUCUGUUGAUAUGGAUGCAGUUCACAGACUAAAUGUCGGUCGGGGAAGAUGUAUUCUUCUCAUAAGAUAUAGUCGGACCUCUCCUUAAUGGGAGCUAGCGGAUGAAGUGAUGCAACACUGGAGCCGCUGGGAACUAAUUUGUAUGCGAAAGUAUAUUGAUUAGUUUUGGAGUACUCGUGGUCG
Method in brief: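 The eight P1ex-region nucleotides of an intron in the knt kanamycin-resistance gene on pET-22b(+) were all randomised and the library put into E. coli BL21(DE3). Six replicate transformations were grown overnight at 37°C or 30°C on LB agar with or without 25 μg/mL kanamycin, together with 100 μg/mL carbenicillin, 50 μM IPTG and 0.2% rhamnose. Colonies were pooled and amplicon-sequenced on an Illumina HiSeq 2500. Fitness from DiMSum is the error-weighted combination of wild-type-normalised replicate fold changes, kanamycin over none.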

Sequence | self-splicing fitness (ln) (30 °C) | self-splicing fitness (ln) (37 °C)
UGGUAGCAAUAUUACGCCCC | -0.393 ± 0.73 | -0.595 ± 1
GUGCAGCAAUAUUACGAUAC | -1.58 ± 0.2 | -0.0479 ± 0.17
UAAGAGCAAUAUUACGAACG | -4.79 ± 1 | –
CACUAGCAAUAUUACGGGCG | -0.464 ± 0.087 | -0.0972 ± 0.084
AUCGAGCAAUAUUACGAAGC | – | -0.609 ± 0.58
GAGGAGCAAUAUUACGCCUU | -0.135 ± 1.2 | -0.681 ± 1
CCUAAGCAAUAUUACGCUAA | -4.22 ± 0.52 | –
UUUGAGCAAUAUUACGUGCC | -1.27 ± 1 | –
GUCUAGCAAUAUUACGCCAA | -3.31 ± 1 | –
UACGAGCAAUAUUACGAGCC | -4.29 ± 1.1 | -2.27 ± 0.63
GACCAGCAAUAUUACGGUCC | – | -4.49 ± 0.59
GGUUAGCAAUAUUACGCUGC | – | -2.63 ± 1.1
AACGAGCAAUAUUACGAAGG | -5.17 ± 0.51 | –
GGAGAGCAAUAUUACGUGCC | -4.34 ± 0.72 | –
AUGGAGCAAUAUUACGCUGC | -4.44 ± 0.74 | –
AUUGAGCAAUAUUACGUCCG | -2.58 ± 0.16 | -2.91 ± 0.48
CCCAAGCAAUAUUACGUGGC | -3.5 ± 0.13 | -2.8 ± 0.18
UCCUAGCAAUAUUACGGUUA | -3.23 ± 0.74 | –
GUGUAGCAAUAUUACGGACC | -3.48 ± 1.1 | –
GCGUAGCAAUAUUACGUCGG | -2.69 ± 0.21 | -3.18 ± 0.24
UGUGAGCAAUAUUACGCUCU | – | -3.24 ± 0.52
CUCCAGCAAUAUUACGCGCA | -3.34 ± 0.31 | -2.56 ± 0.49
ACAAAGCAAUAUUACGAUCG | -0.241 ± 0.074 | 0.193 ± 0.095
GAAUAGCAAUAUUACGGGGC | – | -3.83 ± 0.52

Sequence | self-splicing fitness (ln) (30 °C) | self-splicing fitness (ln) (37 °C)
CUCCAGCAAUAUUACGCACC | -0.926 ± 0.51 | –
GUAAAGCAAUAUUACGAGCC | -2.51 ± 0.33 | -2.56 ± 0.26
UCCGAGCAAUAUUACGCUAA | -3.34 ± 0.52 | -2.86 ± 0.32
ACGGAGCAAUAUUACGCAAG | -3.14 ± 0.27 | -1.79 ± 0.26
AAUGAGCAAUAUUACGCGCU | -4.2 ± 0.72 | –
GUCGAGCAAUAUUACGGGUC | – | -2.97 ± 0.61
AUCAAGCAAUAUUACGGCCC | – | -0.732 ± 0.71
AAAGAGCAAUAUUACGAAAA | -3.5 ± 0.53 | -0.77 ± 0.4
CGGGAGCAAUAUUACGAUCA | -3.31 ± 0.53 | –
CUCCAGCAAUAUUACGCAUA | -3.55 ± 0.54 | –
GGAGAGCAAUAUUACGCCCC | – | -1.55 ± 0.84
AGGGAGCAAUAUUACGGGAC | – | -0.44 ± 1
CAGAAGCAAUAUUACGAAUA | -2.43 ± 0.27 | -1.84 ± 0.24
GAGGAGCAAUAUUACGCGAU | -2.83 ± 0.56 | -1.71 ± 0.62
GAGAAGCAAUAUUACGGCGG | -1.9 ± 0.12 | -1.25 ± 0.15
CUUAAGCAAUAUUACGAACC | -2.86 ± 0.61 | –
CGCGAGCAAUAUUACGGCUC | – | -1.87 ± 0.79
UUGGAGCAAUAUUACGCCAA | – | -2.81 ± 0.75
GUAGAGCAAUAUUACGGCAC | – | -0.267 ± 0.73
CCUAAGCAAUAUUACGCUGC | -4.51 ± 0.72 | –
UGGCAGCAAUAUUACGGUCG | -0.881 ± 0.083 | 0.133 ± 0.13
GCGCAGCAAUAUUACGAAAA | -1.92 ± 0.21 | -1.7 ± 0.21
GUAUAGCAAUAUUACGCCUU | -2.11 ± 0.29 | -0.499 ± 0.24
CGCUAGCAAUAUUACGACGC | -5.26 ± 0.71 | –

Reprinted at random: five entries already listed
Sequence | self-splicing fitness (ln) (30 °C) | self-splicing fitness (ln) (37 °C)
GUCGAGCAAUAUUACGGGUC | – | -2.97 ± 0.61
GCGCAGCAAUAUUACGAAAA | -1.92 ± 0.21 | -1.7 ± 0.21
UCCGAGCAAUAUUACGCUAA | -3.34 ± 0.52 | -2.86 ± 0.32
UUGGAGCAAUAUUACGCCAA | – | -2.81 ± 0.75
ACGGAGCAAUAUUACGCAAG | -3.14 ± 0.27 | -1.79 ± 0.26

Continuation:

Sequence | self-splicing fitness (ln) (30 °C) | self-splicing fitness (ln) (37 °C)
CGCUAGCAAUAUUACGCGAA | -4.16 ± 1 | –
CAGAAGCAAUAUUACGGGCC | -4.76 ± 1 | -3.56 ± 0.6
UCCAAGCAAUAUUACGCGUC | -3.21 ± 0.1 | -2.63 ± 0.11
GAGUAGCAAUAUUACGUUCC | – | -1.24 ± 0.55
UCCAAGCAAUAUUACGCCAC | -3.46 ± 1.1 | –
UAGGAGCAAUAUUACGGUAG | -3.52 ± 0.17 | -1.56 ± 0.13
UAUGAGCAAUAUUACGCUCC | – | -3.24 ± 0.74
AUUAAGCAAUAUUACGAUUG | -2.98 ± 0.15 | -1.86 ± 0.2
GGGUAGCAAUAUUACGCUAC | – | -0.685 ± 0.82
CAAUAGCAAUAUUACGCUAU | – | -1.96 ± 0.51
AGAAAGCAAUAUUACGGACU | -0.691 ± 0.079 | 0.112 ± 0.089
GAGAAGCAAUAUUACGUCGC | – | -1.66 ± 0.83
GAAUAGCAAUAUUACGCUGU | -3.12 ± 0.21 | -2.1 ± 0.15
CGUAAGCAAUAUUACGUAAG | -1.49 ± 0.1 | -0.165 ± 0.092
AUCGAGCAAUAUUACGAGAA | -1.59 ± 0.57 | –
UUUGAGCAAUAUUACGCCGC | -3.02 ± 0.61 | -1.69 ± 0.68
UCCCAGCAAUAUUACGGCUG | -3.88 ± 1.1 | –
UGAGAGCAAUAUUACGACCU | – | -0.595 ± 1
AACUAGCAAUAUUACGCGAC | – | -2.26 ± 0.56
UUCUAGCAAUAUUACGCCUC | -2.65 ± 0.76 | –
UAGAAGCAAUAUUACGUCAC | – | -3.41 ± 0.52
CAGCAGCAAUAUUACGAGAG | -2.38 ± 0.083 | -1.81 ± 0.089
AGGAAGCAAUAUUACGAGAA | -3.01 ± 0.54 | –
UGCUAGCAAUAUUACGGACU | -0.341 ± 0.1 | -0.639 ± 0.088

Sequence | self-splicing fitness (ln) (30 °C) | self-splicing fitness (ln) (37 °C)
GUUCAGCAAUAUUACGCCGC | -4 ± 0.6 | -2.53 ± 0.54
UGAUAGCAAUAUUACGACAC | -4.97 ± 0.73 | –
AUUAAGCAAUAUUACGGACC | -1.96 ± 1.2 | -1.05 ± 0.6
UCUCAGCAAUAUUACGCCCG | – | -1.52 ± 0.67
CGUAAGCAAUAUUACGAUAC | -3.84 ± 0.6 | –
CUGGAGCAAUAUUACGAUCA | -2.02 ± 1.2 | -2.56 ± 0.77
GUCGAGCAAUAUUACGCCUG | -3.21 ± 1.1 | 0.207 ± 0.9
CCUAAGCAAUAUUACGAGCC | -3.76 ± 0.73 | -2.9 ± 1.1
CGCCAGCAAUAUUACGGGCG | -4.97 ± 0.58 | –
GAUGAGCAAUAUUACGAGAU | -4.04 ± 1.1 | –
GUGUAGCAAUAUUACGCAGG | -5.23 ± 0.59 | –
CCCGAGCAAUAUUACGAACC | – | -1.99 ± 0.66
UGGGAGCAAUAUUACGAUGA | -2.75 ± 0.56 | –
CUUGAGCAAUAUUACGGAGC | -4.72 ± 0.72 | –
CGACAGCAAUAUUACGUCCC | – | 0.827 ± 0.58
GCAGAGCAAUAUUACGUCGA | -4.03 ± 0.73 | –
UGUCAGCAAUAUUACGCUAG | -0.41 ± 0.061 | -0.214 ± 0.077
AGGAAGCAAUAUUACGCAAC | 0.271 ± 1.2 | -2.08 ± 1.1
CUUCAGCAAUAUUACGCAUA | -4.27 ± 0.37 | -1.82 ± 0.17
UCGCAGCAAUAUUACGCCAC | -2.23 ± 0.51 | -2.56 ± 0.76
GCAGAGCAAUAUUACGCCCU | -2.94 ± 0.69 | –
AGCAAGCAAUAUUACGUCUU | -1.38 ± 0.068 | -0.234 ± 0.074
UAUUAGCAAUAUUACGUGCA | -0.96 ± 0.16 | -0.986 ± 0.16
CGGGAGCAAUAUUACGACUA | -1.96 ± 0.82 | -1.62 ± 0.6

Sequence | self-splicing fitness (ln) (30 °C) | self-splicing fitness (ln) (37 °C)
CUAAAGCAAUAUUACGCAAA | – | -2.97 ± 0.52
UAGUAGCAAUAUUACGUGGC | -4.32 ± 0.52 | –
CGACAGCAAUAUUACGAGAA | -2.57 ± 0.55 | –
UUUGAGCAAUAUUACGUGAC | -0.746 ± 0.59 | -1.46 ± 0.53
UCGGAGCAAUAUUACGAGAG | – | -1.19 ± 0.73
AGGGAGCAAUAUUACGGCUG | – | -1.69 ± 1.2
UGGGAGCAAUAUUACGAGGU | -3.69 ± 0.74 | -1.66 ± 0.81
CCGGAGCAAUAUUACGCCGG | -5.38 ± 0.71 | –
GCAGAGCAAUAUUACGAAGC | -4.34 ± 0.72 | -2.68 ± 0.76
UUCAAGCAAUAUUACGUUGC | -3.68 ± 0.52 | –
UCGUAGCAAUAUUACGAAGG | – | -2.39 ± 1.1
UUGGAGCAAUAUUACGUAAC | -2.87 ± 0.75 | -0.777 ± 0.56
UUAAAGCAAUAUUACGUUUU | -3.84 ± 0.2 | -2.27 ± 0.18
CGACAGCAAUAUUACGUCCA | -0.437 ± 0.066 | -0.321 ± 0.081
GUGCAGCAAUAUUACGCUCC | -4.1 ± 1 | -1.74 ± 0.57
UGAGAGCAAUAUUACGGCCA | – | -0.635 ± 0.54
GGCGAGCAAUAUUACGGAAA | – | -1.61 ± 0.53
UCGUAGCAAUAUUACGUAGC | – | -3.28 ± 0.61
UAGAAGCAAUAUUACGAACA | -0.322 ± 0.16 | -0.859 ± 0.17
UAGCAGCAAUAUUACGAUCA | 0.112 ± 0.088 | 0.169 ± 0.099
GCGAAGCAAUAUUACGCCCC | – | -0.881 ± 0.61
CGGGAGCAAUAUUACGUAGU | -4.37 ± 0.73 | –

Source: the supplement of paper PMC7877785
